Laboratory results as given in doi:10.1101/2024.03.15.585150 (bioRxiv, 2024).
No constants are given. Whether binding was seen depends on the method and setting.

Protein sequences, listed by entry. Tags and fused reporters are not part of them. Lines headed by an entry give the natural chain unless they say otherwise; changes in a name come on top. Chains listed by the source or under a name are the forms on record and can include a tag or linker.
KIX domain of CBP coactivator (KIX region 586-672) (P45481, form named): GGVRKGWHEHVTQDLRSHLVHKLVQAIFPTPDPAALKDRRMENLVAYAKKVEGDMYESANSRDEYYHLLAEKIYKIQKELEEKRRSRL

Biological target: native Sp1-9aaTAD peptide, Biotin-GSS-…
Experiment: BLI

Substance: KIX domain of CBP coactivator (KIX region 586-672) (from UniProt P45481 586-672) (domain or fragment)
- binding: no binding (tested: 3-16 μM)
